Laboratory results: publication PMC10353892
Substitutions are numbered along the chain they refer to. No constants are given. Whether binding was seen depends on the method and setting. In cells and extracts the contact can be indirect. A yes stands for co-enrichment or nearness to the bait. Other partners may have been found. Tags and fused reporters may be left off the sequences shown. Blank lines part the entries; values can stand above or below the molecule they belong to.

Sequences of proteins named here, by UniProt entry; tags and fusion partners are left off.
UniProt P23696: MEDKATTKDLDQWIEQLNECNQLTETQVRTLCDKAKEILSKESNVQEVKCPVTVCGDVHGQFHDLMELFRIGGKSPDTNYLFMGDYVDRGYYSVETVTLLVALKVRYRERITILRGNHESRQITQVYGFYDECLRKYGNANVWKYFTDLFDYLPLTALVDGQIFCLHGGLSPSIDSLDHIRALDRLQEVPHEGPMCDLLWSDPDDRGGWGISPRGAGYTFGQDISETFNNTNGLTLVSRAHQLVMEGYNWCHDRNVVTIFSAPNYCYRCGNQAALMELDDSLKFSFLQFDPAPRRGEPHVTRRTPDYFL

Assays:
Test in all cases: affinity purification with mass spectrometry; GFP-Trap agarose on lysates of 0-2 h embryos expressing the GFP fusion, GFP alone as control; 20 mM Tris pH 7.5, 150 mM NaCl, 2 mM MgCl2, 0.5% Triton X-100, 4°C; three experiments
[1] = target: T1, Tws-GFP (Drosophila) (UniProt P36872)
T1 sequence: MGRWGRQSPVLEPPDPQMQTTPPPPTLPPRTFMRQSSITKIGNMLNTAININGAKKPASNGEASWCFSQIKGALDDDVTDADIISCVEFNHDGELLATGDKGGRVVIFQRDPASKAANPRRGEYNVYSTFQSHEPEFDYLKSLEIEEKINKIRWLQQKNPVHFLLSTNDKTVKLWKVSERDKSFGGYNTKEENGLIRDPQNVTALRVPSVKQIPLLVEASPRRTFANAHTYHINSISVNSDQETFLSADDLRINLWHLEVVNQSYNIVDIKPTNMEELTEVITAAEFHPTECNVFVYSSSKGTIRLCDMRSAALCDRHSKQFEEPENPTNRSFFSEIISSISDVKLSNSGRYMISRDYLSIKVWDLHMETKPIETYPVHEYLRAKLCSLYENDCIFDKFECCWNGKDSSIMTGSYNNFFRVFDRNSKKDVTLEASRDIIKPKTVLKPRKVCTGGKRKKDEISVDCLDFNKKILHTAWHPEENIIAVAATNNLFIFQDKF

[2] = target: T2, GFP-Tws (Drosophila) (UniProt P36872)
T2 sequence: T1 sequence

[3] = target: T3, GFP-Ote^AA (transgenic embryos) (Drosophila) (UniProt P20240)
T3 sequence: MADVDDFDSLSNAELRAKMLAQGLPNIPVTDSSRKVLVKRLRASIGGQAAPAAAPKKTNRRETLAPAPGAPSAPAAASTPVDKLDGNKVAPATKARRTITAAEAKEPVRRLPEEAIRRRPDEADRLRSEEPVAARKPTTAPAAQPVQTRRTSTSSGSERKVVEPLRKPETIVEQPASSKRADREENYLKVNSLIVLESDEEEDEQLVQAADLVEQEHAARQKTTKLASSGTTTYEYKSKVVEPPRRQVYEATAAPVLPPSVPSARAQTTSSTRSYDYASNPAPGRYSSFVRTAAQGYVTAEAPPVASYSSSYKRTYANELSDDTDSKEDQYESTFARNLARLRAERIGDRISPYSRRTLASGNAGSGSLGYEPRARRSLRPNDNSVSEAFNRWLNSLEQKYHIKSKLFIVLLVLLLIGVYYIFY

[4] = target: T4, GFP-Ote^DD (transgenic embryos) (Drosophila) (UniProt P20240)
T4 sequence: T3 sequence with A50D, A54D

[5] = target: T5, GFP-Ote^WT (transgenic embryos) (Drosophila) (UniProt P20240)
T5 sequence: T3 sequence with A50S, A54S

binding [1]: binds
binding [2]: binds
Molecule: Mts (from UniProt P23696 1-309) (enzyme)

binding [1]: binds
binding [3]: binds
binding [4]: binds
binding [5]: binds
B1: barrier-to-autointegration factor (BAF) (protein, UniProt Q9VLU0 1-90)
chain: MSGTSQKHRNFVAEPMGNKSVTELAGIGETLGGRLKDAGFDMAYTVLGQYLVLKKDEELFKDWMKEVCHASSKQASDCYNCLNDWCEEFL

binding [2]: binds
B2: PP2A-29B (protein, UniProt P36179 1-591)
chain: MAASDKSVDDSLYPIAVLIDELKNEDVQLRLNSIKKLSTIALALGEERTRSELIPFLTETIYDEDEVLLALADQLGNFTSLVGGPEFAMYLIPPLESLATVEETVVRDKAVESLRTVAAEHSAQDLEIHVVPTLQRLVSGDWFTSRTSACGLFSVCYPRVTQPVKAELRANFRKLCQDETPMVRRAAANKLGEFAKVVETEYLKSDLIPNFVQLAQDDQDSVRLLAVEACVSIAQLLPQDDVEHLVLPTLRQCASDSSWRVRYMVAEKFVDLQKAVGPEITRVDLVPAFQYLLKDAEAEVRAAVATKVKDFCANLDKVNQVQIILSSILPYVRDLVSDPNPHVKSALASVIMGLSPMLGAYQTVEQLLPLFLIQLKDECPEVRLNIISNLDCVNDVIGIQQLSQSLLPAIVELAEDSKWRVRLAIIEYMPALAGQLGQEFFDQKLRGLCMGWLNDHVYAIREAATLNMKKLVEQFGAPWAEQAIIPMILVMSRNKNYLHRMTCLFCLNVLAEVCGTDITTKLLLPTVLLLAADPVANVRFNVAKTLQKISPFLEASVIDAQVKPTLDKLNTDTDVDVKHFAAQAIAGIAAA
